From publication PMC4051618
Results are given in words; binding and its absence hold for the method and conditions named. Binding seen in cells or lysates may run through a third protein. Some entries that bind do so weakly or less than the wild type.

Amino acid sequences for entries named in this document (tags omitted).
UniProt Q13200: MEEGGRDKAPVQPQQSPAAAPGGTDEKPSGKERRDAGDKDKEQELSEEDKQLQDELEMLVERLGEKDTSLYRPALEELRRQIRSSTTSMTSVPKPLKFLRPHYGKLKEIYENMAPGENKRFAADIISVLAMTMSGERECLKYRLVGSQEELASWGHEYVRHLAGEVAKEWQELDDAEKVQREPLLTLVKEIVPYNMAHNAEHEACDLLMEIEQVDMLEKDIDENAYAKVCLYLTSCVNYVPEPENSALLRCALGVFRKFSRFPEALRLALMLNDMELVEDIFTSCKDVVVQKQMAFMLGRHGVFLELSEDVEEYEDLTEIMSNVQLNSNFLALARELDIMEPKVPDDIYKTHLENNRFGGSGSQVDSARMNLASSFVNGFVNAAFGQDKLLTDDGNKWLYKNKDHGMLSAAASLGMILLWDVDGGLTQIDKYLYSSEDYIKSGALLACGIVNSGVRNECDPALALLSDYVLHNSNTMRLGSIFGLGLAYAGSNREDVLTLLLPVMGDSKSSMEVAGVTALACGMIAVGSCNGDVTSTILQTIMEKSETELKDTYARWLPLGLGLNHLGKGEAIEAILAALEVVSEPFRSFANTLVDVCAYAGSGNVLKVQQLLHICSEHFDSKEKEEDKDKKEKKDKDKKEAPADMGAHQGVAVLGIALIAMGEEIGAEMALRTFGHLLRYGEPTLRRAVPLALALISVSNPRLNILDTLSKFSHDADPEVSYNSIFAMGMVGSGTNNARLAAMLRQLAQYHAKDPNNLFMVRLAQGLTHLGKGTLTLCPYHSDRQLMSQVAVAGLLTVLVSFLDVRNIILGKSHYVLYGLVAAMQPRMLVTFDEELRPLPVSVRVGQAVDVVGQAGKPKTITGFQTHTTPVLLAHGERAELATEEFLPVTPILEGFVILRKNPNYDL
UniProt P62191: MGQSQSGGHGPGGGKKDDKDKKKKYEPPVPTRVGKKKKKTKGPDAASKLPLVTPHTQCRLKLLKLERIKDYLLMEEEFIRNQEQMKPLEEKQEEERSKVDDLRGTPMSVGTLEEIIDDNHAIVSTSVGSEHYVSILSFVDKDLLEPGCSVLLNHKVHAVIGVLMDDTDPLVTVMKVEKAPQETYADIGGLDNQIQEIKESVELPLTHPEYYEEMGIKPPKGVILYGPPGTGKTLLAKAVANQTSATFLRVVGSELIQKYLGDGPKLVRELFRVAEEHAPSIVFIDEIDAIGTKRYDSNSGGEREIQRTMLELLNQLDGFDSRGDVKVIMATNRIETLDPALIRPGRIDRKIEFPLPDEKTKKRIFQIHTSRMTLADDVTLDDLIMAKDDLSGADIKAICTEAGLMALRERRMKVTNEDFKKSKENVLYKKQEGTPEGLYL
UniProt Q16186: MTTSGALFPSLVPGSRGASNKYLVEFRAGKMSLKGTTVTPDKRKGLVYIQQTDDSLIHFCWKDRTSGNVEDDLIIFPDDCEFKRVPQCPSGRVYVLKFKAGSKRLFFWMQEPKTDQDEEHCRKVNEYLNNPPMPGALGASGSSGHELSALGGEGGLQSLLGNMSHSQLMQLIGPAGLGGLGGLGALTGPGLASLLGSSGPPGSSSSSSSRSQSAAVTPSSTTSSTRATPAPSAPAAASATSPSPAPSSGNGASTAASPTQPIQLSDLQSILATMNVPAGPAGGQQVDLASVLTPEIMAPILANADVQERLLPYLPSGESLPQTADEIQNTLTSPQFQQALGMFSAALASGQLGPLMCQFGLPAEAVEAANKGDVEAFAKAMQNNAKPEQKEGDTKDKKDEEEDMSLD

The substances below were run against HA-tagged full-length S5a (human) (UniProt P55036) (assay: co-IP; A375 cells infected with adenovirus, lysed under native conditions that keep the 26S proteasome intact (20 mM Tris pH 7.5, 0.1% NP-40, 5 mM MgCl2, 20% glycerol, 2 mM ATP, 1 mM DTT); anti-HA agarose beads, 1 h at 4 °C; western blot for proteasomal subunits).

binding, binds:
S2/PSMD2/Rpn1 (19S base) (from UniProt Q13200 1-908)
S4/PSMC1/Rpt2 (19S base) (from UniProt P62191 1-440)
ADRM1/Rpn13 (19S base) (from UniProt Q16186 1-407)

Each substance was assayed against HA-tagged S5aΔUIM (residues 1 to 195 of S5a, lacks both UIMs) (human) (UniProt P55036) in the same assay as above.

binding, binds:
S2/PSMD2/Rpn1 (19S base) (from UniProt Q13200 1-908)
S4/PSMC1/Rpt2 (19S base) (from UniProt P62191 1-440)
ADRM1/Rpn13 (19S base) (from UniProt Q16186 1-407)
